For at least one compound, name, drawing or mass did not settle the structure.
Assay: Case study Example 3: person with schizophrenia
Details: schizophrenic; formulation given while remaining on clozapine and lithium
From the text: Person diagnosed with schizophrenia. Hospitalized several times suffering from acute psychotic attack with hallucinations and paranoia. Treated with many typical and atypical antipsychotic drugs. […] Over the years, several diagnoses were given, including bipolar disorder, obsessive-compulsive disorder, affective disorder, and combinations thereof. Medications have included lithium, olanzapine, prozac, and several sleep medications. […] Patient went through years of treatment programs and weekly psychiatric sessions. Although they managed (with extreme difficulty) to obtain BA and MA degrees, paranoia and anxiety prevented them from working. Recent history. Patient has been on an atypical antipsychotic (clozapine) and high doses of lithium carbonate for the past 2 years. […] Patient started on Metabolic Enhancement Therapy with the disclosed formulation, while remaining on clozapine and lithium.

| Structure (SMILES) | relief of symptoms (anxiety, obsessive compulsive behavior, psychosis) |
| --- | --- |
| [Li] [lithium] | None provided relief of symptoms |
| Cc1cc2c(s1)Nc1ccccc1N=C2N1CCN(C)CC1 [olanzapine] | None provided relief of symptoms |
